# Results are given in words; binding and its absence hold for the method and conditions named. Binding seen in cells or lysates may run through a third protein. Some results given as binding are weak or reduced against the parent protein; the word gives no strength. Tags and fused reporters may be left off the sequences shown.
# T1: vascular urokinase-type plasminogen activator receptor (uPAR) of tEnd1.V^high cells (mouse) (UniProt P35456)
# T1 sequence (looked up): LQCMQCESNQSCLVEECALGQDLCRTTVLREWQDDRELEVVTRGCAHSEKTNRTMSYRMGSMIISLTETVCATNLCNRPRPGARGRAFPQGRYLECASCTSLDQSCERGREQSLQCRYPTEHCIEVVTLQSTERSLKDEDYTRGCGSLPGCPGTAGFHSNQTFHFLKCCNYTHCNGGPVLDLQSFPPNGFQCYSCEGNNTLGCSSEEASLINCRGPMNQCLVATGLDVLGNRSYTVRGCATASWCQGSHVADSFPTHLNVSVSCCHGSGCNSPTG
# Target: T1, vascular urokinase-type plasminogen activator receptor (uPAR) of tEnd1.V^high cells (mouse)
# Assay: pull-down / co-immunoprecipitation with Western blot, tEnd1.V^high cells
binder,measurement,value
"recombinant mouse SRPX2-FLAG (ligand, UniProt Q8R054 26-468, looked up, not shown: small tags and cut ends) WYAGSGYSPDESYNEVYAEEVPAARARALDYRVPRWCYTLNIQDGEATCYSPRGGNYHSSLGTRCELSCDRGFRLIGRKSVQCLPSRRWSGTAYCRQIRCHTLPFITSGTYTCTNGMLLDSRCDYSCSSGYHLEGDRSRICMEDGRWSGGEPVCVDIDPPKIRCPHSREKMAEPEKLTARVYWDPPLVKDSADGTITRVTLRGPEPGSHFPEGEHVIRYTAYDRAYNRASCKFIVKVQVRRCPILKPPQHGYLTCSSAGDNYGAICEYHCDGGYERQGTPSRVCQSSRQWSGTPPVCTPMKINVNVNSAAGLLDQFYEKQRLLIVSAPDPSNRYYKMQISMLQQSTCGLDLRHVTIIELVGQPPQEVGRIREQQLSAGIIEELRQFQRLTRSYFNMVLIDKQGIDRERYMEPVTPEEIFTFIDDYLLSNEELARRVEQRDLCE",binding,binds

# — patent US20110052677A1 (RESEARCH DEVELOPMENT FOUNDATION, published 2011)
